The other results are listed elsewhere or left out. Entries without a call are filed as inconclusive in the source.

Consider 8 compounds from PubChem BioAssay AID2631 (Broad Institute, 2010).

The nature of this experiment: cytotoxicity toward Ras-transformed BJeLR fibroblasts, dose response, cell-based, alamar blue fluorescence, cherrypicked samples (AID 2631). As to conditions: BJeLR fibroblast viability, 48 h, at 13.3 µM (top of the series). For orientation: Alamar Blue is a resazurin reagent that responds to reducing activity.

For `COc1cc2c(c(OC)c1OC)-c1ccc(O)c(=O)cc1C(NC(C)=O)CC2` (stereo not drawn), the activity, negative = growth loss was -65.7%. For `COc1ccc(NC(=O)C(=O)NCC2CCCN2S(=O)(=O)c2ccc(C)cc2)cc1` (stereo not drawn), the activity, negative = growth loss is -66.1%.

Regarding `COc1ccccc1-c1nnc2sc(-c3ccc(N(C)C)cc3)nn12`, the activity, negative = growth loss is -65%. In the case of `CSc1ccc(COC(=O)c2cc([N+](=O)[O-])ccc2N2CCOCC2)cc1`, the activity, negative = growth loss is -67.1%. As for `COc1ccc2[nH]c3c(C)c4ccncc4c(C)c3c2c1`, the activity, negative = growth loss is -52.2%.

Regarding `COc1ccc(COC(=O)c2cc([N+](=O)[O-])ccc2N2CCOCC2)cc1F`, the activity, negative = growth loss was -70.3%. On to `Cc1ccc(C(=O)c2cc([N+](=O)[O-])ccc2N2CCCCC2)c(C)c1`, for which the activity, negative = growth loss was -68.1%. Regarding `Cc1cccc(N(C)S(=O)(=O)c2ccc(-c3cnc(C4CC4)o3)cc2)c1`, the activity, negative = growth loss is -68.2%.
